These are yes or no findings as the source states them, for the method shown. In cells and extracts the contact can be indirect. Binding can be weak; no strength is given.
Molecular target: HSP70 (human (endogenous in SH-SY5Y))
Assay: co-IP

B1: EVA1-C (protein, UniProt P58658 49-441)
chain: LTDFSGYLTKLLQNHTTYACDGDYLNLQCPRHSTISVQSAFYGQDYQMCSSQKPASQREDSLTCVAATTFQKVLDECQNQRACHLLVNSRVFGPDLCPGSSKYLLVSFKCQPNELKNKTVCEDQELKLHCHESKFLNIYSATYGRRTQERDICSSKAERLPPFDCLSYSALQVLSRRCYGKQRCKIIVNNHHFGSPCLPGVKKYLTVTYACVPKNILTAIDPAIANLKPSLKQKDGEYGINFDPSGSKVLRKDGILVSNSLAAFAYIRAHPERAALLFVSSVCIGLALTLCALVIRESCAKDFRDLQLGREQLVPGSDKVEEDSEDEEEEEDPSESDFPGELSGFCRTSYPIYSSIEAAELAERIERREQIIQEIWMNSGLDTSLPRNMGQFY
- binding: binds

From publication doi:10.1101/2024.10.27.620478
